Laboratory results: PubChem BioAssay AID1259308 (NCATS, 2017)
The whole screen tested about 59,000 reagents; shown is an unselected part. Over the whole deposit, about 1,510 (2.6%) got an active call. 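Calls use total luciferase alone and ignore viability, so some active siRNAs may act by altering cell number.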 A number with no mark means an inactive call. The numbers tell different reagents against one gene apart. Further read-outs or replicates are left out here.

Purpose: 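Genes whose loss raises luciferase production in HEK293 cells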 (primary screen)
Cell system: human HEK293 embryonic kidney cells stably expressing firefly luciferase (HEK-CMV-Luc2-Hygro)
Reagent: single siRNA against human genes, 0.8 pmol siRNA per well
Timing: 72 h
Measurement: 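Luciferase light (ONE-Glo) measured on one replicate plate set and viability (CellTiter-Glo) on the other, scaled to a negative control siRNA, with robust z-scores and luciferase per cell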
Reading the numbers: total luciferase, z-score and total luciferase, % of control: higher = more reporter protein produced
Call rule: 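Active when the median/MAD z-score for overall luciferase is greater than 3; a gene was taken forward for validation with new siRNAs if at least two of its three siRNAs passed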
Meaning of the calls: active = raised luciferase; inactive = no rise

| gene knocked down | siRNA no. | total luciferase, z-score | total luciferase, % of control |
| --- | --- | --- | --- |
| ATAD1 | 1 | 0.0205 | 82.3 |
| ATAD1 | 2 | 0.0985 | 83.8 |
| ATAD1 | 3 | -1.9 | 44.2 |
| KREMEN1 | 1 | 0.686 | 95.5 |
| KREMEN1 | 2 | 0.253 | 86.9 |
| KREMEN1 | 3 | -0.96 | 62.8 |
| REXO1L1P | 1 | -0.83 | 65.4 |
| REXO1L1P | 2 | 2.17 | 125 |
| REXO1L1P | 3 | 1.98 | 121 |
| FSD1L | 1 | -0.538 | 71.2 |
| FSD1L | 2 | -0.531 | 71.3 |
| FSD1L | 3 | 0.353 | 88.9 |
| ASCC1 | 1 | -0.391 | 74.1 |
| ASCC1 | 2 | 2.15 | 125 |
| ASCC1 | 3 | -0.271 | 76.5 |
| MIR34BHG | 1 | -0.383 | 74.3 |
| MIR34BHG | 2 | 0.226 | 86.4 |
| MIR34BHG | 3 | 1.22 | 106 |
| MUSTN1 | 1 | 1.16 | 105 |
| MUSTN1 | 2 | -2.07 | 40.7 |
| MUSTN1 | 3 | -0.146 | 79 |
| DISP1 | 1 | -0.34 | 75.1 |
| DISP1 | 2 | 0.535 | 92.5 |
| DISP1 | 3 | -0.412 | 73.7 |
| KCNJ14 | 1 | -1.45 | 53.1 |
| KCNJ14 | 2 | 0.808 | 98 |
| KCNJ14 | 3 | -0.557 | 70.8 |
| LRRTM4 | 1 | 0.211 | 86.1 |
| LRRTM4 | 2 | -1.16 | 58.9 |
| LRRTM4 | 3 | -0.422 | 73.5 |
| ELMO3 | 1 | 0.423 | 90.3 |
| ELMO3 | 2 | 2.11 | 124 |
| ELMO3 | 3 | 0.0889 | 83.7 |
| UBLCP1 | 1 | 0.112 | 84.1 |
| UBLCP1 | 2 | 0.18 | 85.5 |
| UBLCP1 | 3 | -1.68 | 48.4 |

Part of the list above, showing only “total luciferase, z-score”.
KCNJ14 #1	-1.45
KCNJ14 #2	0.808
KCNJ14 #3	-0.557
LRRTM4 #1	0.211
LRRTM4 #2	-1.16
LRRTM4 #3	-0.422

The list goes on.
| gene knocked down | siRNA no. | total luciferase, z-score | total luciferase, % of control |
| --- | --- | --- | --- |
| TSSK3 | 1 | 0.61 | 94 |
| TSSK3 | 2 | 0.388 | 89.6 |
| TSSK3 | 3 | 0.195 | 85.8 |
| RAPGEFL1 | 1 | -2.34 | 35.3 |
| RAPGEFL1 | 2 | -0.711 | 67.8 |
| RAPGEFL1 | 3 | 0.45 | 90.8 |
| SACK1A | 1 | 0.871 | 99.2 |
| SACK1A | 2 | 0.907 | 99.9 |
| SACK1A | 3 | 2.02 | 122 |
| FARSB | 1 | 0.627 | 94.4 |
| FARSB | 2 | -0.0688 | 80.5 |
| FARSB | 3 | -0.79 | 66.2 |
| VMP1 | 1 | 1 | 102 |
| VMP1 | 2 | 0.4 | 89.8 |
| VMP1 | 3 | 0.0224 | 82.3 |
| RCN3 | 1 | -0.429 | 73.4 |
| RCN3 | 2 | 5.21 (active) | 186 |
| RCN3 | 3 | -1.05 | 61 |
| MAP3K2 | 1 | -0.512 | 71.7 |
| MAP3K2 | 2 | 0.347 | 88.8 |
| MAP3K2 | 3 | -0.00448 | 81.8 |
